Results as given in paper PMC9945352.
No constants are given. Whether binding was seen depends on the method and setting. Binding seen in cells or lysates may run through a third protein. Some binding calls cover weakened binding; strength is not graded here.

By UniProt entry, the sequences of proteins in these tests, tags left out.
UniProt Q9UBN7: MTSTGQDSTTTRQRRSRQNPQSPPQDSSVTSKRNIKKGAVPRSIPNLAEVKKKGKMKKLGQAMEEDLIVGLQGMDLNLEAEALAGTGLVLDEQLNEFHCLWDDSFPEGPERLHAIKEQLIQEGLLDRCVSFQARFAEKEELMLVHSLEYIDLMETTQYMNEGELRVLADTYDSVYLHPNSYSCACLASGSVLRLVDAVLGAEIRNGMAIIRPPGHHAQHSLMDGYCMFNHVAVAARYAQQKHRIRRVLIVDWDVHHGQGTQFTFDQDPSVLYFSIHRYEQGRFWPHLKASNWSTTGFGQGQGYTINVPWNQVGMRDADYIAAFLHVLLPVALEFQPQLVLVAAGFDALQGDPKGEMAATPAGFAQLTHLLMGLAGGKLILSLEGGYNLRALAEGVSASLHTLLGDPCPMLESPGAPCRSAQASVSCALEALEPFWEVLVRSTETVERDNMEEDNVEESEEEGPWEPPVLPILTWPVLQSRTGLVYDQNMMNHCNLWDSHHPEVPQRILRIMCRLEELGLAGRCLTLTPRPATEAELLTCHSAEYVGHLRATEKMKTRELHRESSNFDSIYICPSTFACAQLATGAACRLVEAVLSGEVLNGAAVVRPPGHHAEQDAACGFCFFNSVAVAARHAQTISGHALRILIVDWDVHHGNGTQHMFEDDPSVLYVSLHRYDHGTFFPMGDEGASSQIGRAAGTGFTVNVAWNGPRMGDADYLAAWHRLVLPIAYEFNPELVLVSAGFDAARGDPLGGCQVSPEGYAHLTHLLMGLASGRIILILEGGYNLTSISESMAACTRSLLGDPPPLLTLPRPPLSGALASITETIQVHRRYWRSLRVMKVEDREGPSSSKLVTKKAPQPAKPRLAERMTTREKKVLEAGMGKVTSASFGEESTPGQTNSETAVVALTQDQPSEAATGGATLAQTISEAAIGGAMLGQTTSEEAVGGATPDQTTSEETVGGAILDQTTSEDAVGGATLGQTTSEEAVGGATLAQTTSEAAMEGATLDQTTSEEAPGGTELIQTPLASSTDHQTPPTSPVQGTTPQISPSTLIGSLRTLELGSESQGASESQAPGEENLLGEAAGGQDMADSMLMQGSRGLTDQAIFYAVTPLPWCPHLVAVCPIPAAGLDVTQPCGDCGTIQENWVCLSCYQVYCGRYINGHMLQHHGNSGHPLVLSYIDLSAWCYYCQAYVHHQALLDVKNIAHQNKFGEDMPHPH

Target: T1, SMAR1 (human (endogenous in CAL62 and 8305C)) (UniProt Q8N9N5)
T1 sequence: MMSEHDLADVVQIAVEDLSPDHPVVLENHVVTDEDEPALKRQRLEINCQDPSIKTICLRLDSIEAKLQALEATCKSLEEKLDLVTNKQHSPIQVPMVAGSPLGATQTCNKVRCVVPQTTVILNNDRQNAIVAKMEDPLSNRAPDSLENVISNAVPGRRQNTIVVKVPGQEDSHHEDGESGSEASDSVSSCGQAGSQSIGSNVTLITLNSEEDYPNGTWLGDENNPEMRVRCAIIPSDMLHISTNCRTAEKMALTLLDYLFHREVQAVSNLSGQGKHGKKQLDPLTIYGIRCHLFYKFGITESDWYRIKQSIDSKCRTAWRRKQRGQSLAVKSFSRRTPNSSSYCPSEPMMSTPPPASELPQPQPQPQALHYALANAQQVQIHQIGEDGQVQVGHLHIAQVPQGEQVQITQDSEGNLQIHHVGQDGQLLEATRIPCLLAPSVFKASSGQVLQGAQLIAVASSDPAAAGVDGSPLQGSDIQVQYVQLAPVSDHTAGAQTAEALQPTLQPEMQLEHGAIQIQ
Assay: co-IP; endogenous SMAR1 and HDAC6, co-IP with western blotting in shRBX1-CAL62 cells (RBX1 knock-down) and HA-RBX1-8305C cells (RBX1 overexpression)

HDAC6 (from UniProt Q9UBN7 1-1215)
binding: binds
